The list shows a part of the results.
Compound: CC1Cc2ccccc2N1C(=O)C1CCCN(C1)C(=O)CCl (mixture of isomers) [TRIM25 ligand 11 (diastereomer mixture)]
Assay: probe-labelled cysteine peptide fold change vs DMSO (competition) (log2 fold change); higher = less target engagement (more negative = stronger competition)
Conditions: THP-1, incubation time: 4 h
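Also: competitive chemoproteomic profiling in live THP-1 cells with an iodoacetamide desthiobiotin (IA-DTB) probe, comparing probe-labelled peptide intensities in compound-treated cells against DMSO-treated controls.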

Amino acid sequences for entries named in this document (tags omitted). A change or cut given only in a name is not applied to a line headed by its entry.
UniProt P28340: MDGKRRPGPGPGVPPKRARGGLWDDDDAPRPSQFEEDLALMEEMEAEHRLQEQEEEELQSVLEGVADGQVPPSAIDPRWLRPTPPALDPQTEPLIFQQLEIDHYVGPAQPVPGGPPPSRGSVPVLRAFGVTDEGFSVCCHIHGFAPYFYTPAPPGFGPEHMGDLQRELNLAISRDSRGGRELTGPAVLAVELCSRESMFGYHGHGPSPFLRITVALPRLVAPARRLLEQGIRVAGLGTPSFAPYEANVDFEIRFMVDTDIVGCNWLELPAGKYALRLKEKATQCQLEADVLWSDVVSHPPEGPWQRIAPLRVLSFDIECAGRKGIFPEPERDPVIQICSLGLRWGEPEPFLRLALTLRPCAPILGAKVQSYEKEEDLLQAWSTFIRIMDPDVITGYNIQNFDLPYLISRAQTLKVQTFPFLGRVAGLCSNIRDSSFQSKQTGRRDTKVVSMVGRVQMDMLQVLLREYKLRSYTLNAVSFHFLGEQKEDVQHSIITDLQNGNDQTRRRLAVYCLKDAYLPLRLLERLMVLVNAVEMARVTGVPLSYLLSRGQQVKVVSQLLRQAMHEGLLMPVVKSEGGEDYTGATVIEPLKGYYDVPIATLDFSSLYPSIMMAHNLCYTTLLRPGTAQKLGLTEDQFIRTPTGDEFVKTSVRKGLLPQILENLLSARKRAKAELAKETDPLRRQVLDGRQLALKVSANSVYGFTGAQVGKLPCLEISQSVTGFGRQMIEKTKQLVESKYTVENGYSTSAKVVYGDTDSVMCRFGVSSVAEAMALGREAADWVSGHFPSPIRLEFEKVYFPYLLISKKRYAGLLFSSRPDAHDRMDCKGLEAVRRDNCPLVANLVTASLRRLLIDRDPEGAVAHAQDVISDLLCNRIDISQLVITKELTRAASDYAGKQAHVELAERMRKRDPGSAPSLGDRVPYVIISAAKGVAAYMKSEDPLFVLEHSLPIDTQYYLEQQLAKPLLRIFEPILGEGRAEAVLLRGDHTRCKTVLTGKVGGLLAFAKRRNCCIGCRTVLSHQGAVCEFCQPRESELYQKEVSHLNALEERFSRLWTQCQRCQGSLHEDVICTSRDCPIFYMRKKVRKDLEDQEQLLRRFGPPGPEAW
UniProt Q7Z3K3: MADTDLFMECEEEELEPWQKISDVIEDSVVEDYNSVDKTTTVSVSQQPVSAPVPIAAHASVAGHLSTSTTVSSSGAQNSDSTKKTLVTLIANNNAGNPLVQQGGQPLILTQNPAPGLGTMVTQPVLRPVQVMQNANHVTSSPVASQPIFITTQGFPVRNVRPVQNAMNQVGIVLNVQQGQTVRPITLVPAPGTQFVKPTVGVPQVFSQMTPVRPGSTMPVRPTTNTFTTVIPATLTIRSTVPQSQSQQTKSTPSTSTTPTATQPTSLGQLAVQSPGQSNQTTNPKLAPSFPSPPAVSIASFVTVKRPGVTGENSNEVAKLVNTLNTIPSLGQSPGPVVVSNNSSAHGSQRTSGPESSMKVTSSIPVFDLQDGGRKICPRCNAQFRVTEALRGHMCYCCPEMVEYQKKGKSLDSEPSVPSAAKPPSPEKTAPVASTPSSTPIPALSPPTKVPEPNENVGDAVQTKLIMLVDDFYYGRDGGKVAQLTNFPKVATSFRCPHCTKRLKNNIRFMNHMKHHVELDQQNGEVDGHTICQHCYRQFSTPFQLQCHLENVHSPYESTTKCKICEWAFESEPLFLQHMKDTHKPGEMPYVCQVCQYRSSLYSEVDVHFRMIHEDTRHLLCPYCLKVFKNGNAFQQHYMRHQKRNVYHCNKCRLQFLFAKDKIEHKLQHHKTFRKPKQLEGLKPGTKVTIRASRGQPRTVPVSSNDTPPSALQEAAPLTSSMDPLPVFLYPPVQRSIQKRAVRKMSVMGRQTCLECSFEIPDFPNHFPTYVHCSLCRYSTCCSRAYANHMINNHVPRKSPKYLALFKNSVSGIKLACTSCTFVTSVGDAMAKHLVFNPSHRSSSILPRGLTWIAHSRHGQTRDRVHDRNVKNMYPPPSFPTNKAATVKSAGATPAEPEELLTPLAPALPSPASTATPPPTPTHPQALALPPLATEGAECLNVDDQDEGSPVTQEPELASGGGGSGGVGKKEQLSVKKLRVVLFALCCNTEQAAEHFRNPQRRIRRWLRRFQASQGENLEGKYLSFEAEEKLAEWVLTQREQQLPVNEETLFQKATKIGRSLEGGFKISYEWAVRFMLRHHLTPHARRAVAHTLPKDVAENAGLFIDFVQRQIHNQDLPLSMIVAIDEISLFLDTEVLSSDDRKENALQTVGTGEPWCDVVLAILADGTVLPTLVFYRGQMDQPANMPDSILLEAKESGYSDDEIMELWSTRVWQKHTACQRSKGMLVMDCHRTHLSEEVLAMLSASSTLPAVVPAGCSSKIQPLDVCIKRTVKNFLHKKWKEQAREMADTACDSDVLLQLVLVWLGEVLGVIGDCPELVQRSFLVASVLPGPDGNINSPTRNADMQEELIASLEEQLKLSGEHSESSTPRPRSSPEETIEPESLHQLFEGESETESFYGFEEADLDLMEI
UniProt Q06203, whole entry, looked up: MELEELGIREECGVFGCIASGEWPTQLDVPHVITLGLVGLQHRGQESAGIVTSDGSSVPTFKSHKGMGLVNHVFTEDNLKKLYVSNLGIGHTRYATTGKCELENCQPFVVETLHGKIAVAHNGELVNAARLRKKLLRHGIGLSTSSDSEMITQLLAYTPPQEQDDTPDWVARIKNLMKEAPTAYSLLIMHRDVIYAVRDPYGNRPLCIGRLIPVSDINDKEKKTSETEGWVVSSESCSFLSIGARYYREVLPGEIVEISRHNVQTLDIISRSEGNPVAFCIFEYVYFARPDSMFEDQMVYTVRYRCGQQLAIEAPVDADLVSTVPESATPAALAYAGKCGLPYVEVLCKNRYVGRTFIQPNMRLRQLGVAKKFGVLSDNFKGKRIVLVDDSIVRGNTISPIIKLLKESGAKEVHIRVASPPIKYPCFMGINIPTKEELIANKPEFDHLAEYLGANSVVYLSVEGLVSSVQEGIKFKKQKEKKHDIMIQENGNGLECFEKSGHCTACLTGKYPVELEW
UniProt Q9H2U2: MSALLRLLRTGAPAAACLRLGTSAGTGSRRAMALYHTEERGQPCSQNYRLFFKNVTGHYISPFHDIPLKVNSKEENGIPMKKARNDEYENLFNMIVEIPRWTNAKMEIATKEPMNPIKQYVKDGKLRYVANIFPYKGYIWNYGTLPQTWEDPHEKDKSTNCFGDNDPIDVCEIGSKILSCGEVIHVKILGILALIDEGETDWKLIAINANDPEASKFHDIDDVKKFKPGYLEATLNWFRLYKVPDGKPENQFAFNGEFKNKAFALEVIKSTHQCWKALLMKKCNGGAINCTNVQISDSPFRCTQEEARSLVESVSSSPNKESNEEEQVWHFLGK
UniProt P30405: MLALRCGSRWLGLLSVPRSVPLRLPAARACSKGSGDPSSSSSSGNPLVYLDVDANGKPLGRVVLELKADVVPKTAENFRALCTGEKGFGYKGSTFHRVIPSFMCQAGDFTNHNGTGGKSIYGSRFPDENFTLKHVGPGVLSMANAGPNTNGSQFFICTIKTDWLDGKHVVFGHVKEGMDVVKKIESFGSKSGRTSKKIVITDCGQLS
UniProt Q8NBL1: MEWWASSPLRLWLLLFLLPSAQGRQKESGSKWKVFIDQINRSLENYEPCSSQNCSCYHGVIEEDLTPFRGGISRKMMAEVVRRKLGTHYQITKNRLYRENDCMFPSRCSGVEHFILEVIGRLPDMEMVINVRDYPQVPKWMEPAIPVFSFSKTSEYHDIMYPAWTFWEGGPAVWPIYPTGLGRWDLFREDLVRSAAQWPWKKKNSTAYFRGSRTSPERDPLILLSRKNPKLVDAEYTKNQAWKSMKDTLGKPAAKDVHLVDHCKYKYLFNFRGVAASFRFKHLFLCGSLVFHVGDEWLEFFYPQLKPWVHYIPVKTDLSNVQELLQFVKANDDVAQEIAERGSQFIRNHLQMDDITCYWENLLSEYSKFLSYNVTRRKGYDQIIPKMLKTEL
UniProt Q8TCS8: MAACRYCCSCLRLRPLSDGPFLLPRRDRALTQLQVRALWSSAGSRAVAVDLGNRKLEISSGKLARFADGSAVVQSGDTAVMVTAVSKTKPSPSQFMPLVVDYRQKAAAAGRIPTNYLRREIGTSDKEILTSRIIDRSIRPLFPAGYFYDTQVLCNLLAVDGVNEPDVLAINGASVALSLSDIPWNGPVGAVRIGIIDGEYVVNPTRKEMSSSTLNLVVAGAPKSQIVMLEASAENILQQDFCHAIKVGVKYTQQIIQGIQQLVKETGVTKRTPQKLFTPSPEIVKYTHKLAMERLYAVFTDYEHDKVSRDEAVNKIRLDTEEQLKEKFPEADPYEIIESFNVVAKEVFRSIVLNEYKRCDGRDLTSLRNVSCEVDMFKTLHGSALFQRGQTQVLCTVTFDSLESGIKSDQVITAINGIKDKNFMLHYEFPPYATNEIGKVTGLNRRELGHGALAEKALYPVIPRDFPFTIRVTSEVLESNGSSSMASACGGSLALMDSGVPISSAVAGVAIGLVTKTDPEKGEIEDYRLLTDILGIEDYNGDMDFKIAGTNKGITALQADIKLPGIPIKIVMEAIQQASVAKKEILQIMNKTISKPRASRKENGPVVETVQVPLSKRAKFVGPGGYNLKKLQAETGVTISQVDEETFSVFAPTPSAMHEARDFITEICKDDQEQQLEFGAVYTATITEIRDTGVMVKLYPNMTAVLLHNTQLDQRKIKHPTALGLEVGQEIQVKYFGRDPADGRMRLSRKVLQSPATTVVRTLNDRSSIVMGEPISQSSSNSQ
UniProt Q9NVU0: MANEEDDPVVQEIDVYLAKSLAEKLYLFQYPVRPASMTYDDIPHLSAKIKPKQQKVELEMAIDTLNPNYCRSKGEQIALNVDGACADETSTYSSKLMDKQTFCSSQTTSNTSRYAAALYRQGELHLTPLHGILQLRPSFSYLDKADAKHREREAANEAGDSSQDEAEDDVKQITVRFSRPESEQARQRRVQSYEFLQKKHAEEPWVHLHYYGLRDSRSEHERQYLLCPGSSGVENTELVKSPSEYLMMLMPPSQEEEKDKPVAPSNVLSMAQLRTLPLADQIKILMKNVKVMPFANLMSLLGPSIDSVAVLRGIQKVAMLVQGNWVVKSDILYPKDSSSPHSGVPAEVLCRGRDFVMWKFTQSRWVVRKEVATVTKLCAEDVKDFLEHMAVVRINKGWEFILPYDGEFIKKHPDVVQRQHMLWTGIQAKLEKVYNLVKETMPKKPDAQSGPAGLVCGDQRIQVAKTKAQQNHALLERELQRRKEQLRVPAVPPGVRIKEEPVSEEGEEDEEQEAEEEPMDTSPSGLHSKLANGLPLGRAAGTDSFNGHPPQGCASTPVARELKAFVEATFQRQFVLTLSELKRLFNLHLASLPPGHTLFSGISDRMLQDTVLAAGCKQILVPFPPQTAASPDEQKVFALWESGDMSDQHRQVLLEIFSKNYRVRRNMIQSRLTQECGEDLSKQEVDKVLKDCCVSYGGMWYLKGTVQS
UniProt Q86W92: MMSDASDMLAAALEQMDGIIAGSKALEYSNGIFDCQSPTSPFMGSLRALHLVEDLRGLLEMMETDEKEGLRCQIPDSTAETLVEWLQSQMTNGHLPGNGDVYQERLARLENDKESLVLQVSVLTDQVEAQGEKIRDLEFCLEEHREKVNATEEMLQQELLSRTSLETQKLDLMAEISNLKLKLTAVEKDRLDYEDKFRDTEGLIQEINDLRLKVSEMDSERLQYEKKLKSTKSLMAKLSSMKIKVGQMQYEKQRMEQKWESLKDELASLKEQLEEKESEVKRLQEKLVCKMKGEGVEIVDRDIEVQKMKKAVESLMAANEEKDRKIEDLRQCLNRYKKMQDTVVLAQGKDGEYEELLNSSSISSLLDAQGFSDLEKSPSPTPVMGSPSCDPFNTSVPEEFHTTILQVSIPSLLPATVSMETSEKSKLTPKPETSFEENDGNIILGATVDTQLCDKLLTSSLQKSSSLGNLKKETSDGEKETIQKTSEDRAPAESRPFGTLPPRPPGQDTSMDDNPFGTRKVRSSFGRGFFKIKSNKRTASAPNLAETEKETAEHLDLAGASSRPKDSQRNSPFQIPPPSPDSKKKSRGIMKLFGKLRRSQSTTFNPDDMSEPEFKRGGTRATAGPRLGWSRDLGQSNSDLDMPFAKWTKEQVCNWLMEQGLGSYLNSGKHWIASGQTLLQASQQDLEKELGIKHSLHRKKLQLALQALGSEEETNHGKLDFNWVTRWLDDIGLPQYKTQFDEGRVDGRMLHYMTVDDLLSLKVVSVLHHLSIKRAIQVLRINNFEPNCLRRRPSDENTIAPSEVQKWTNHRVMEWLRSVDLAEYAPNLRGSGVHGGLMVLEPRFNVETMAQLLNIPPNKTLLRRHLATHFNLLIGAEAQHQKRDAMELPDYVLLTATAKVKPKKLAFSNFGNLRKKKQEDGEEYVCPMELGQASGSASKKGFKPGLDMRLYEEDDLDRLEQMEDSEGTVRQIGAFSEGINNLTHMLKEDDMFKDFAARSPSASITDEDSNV

Target | probe-labelled cysteine peptide fold change (10 µM) | probe-labelled cysteine peptide fold change (50 µM)
POLE_Q07864_2148_LVDVGEFSEEAQFRDPCR (UniProt Q07864) | 0.0487 | -0.0191
POLR2A_P24928_233_ISDEECFVLGMEPR (UniProt P24928) | 0.18 | -0.072
POLR1E_Q9GZS1_14_WQYCGAPDGSQR (UniProt Q9GZS1) | -0.193 | -0.244
POLD1_P28340_360_LALTLRPCAPILGAK (UniProt P28340) | -0.173 | -0.23
POLI_Q9UNA4_336_CSSEVEAK (UniProt Q9UNA4) | 0.041 | -0.0479
POLR2H_P52434_30_LHCESESFK (UniProt P52434) | 0.23 | 0.0916
POLD1_P28340_1026+1029_TVLSHQGAVCEFCQPR (UniProt P28340) | -0.0904 | -0.197
POMGNT1_Q8WZA1_490_ECIIPDVSR (UniProt Q8WZA1) | 0.0512 | 0.187
POGZ_Q7Z3K3_621+624_HLLCPYCLK (UniProt Q7Z3K3) | -0.0243 | -0.0165
POLR2A_P24928_184_GHGGCGR (UniProt P24928) | -0.0378 | 0.0214
POLA1_P09884_584_AAPKPPFQSHFCVVSK (UniProt P09884) | 0.34 | 0.231
PPAT_Q06203_503_SGHCTACLTGK (UniProt Q06203) | 0.157 | -0.211
PPA2_Q9H2U2_161_STNCFGDNDPIDVCEIGSK (UniProt Q9H2U2) | 0.0296 | 0.0346
POLR2B_P30876_357_EMLPHVGVSDFCETK (UniProt P30876) | -0.02 | -0.0744
PPIF_P30405_203_KIVITDCGQLS (UniProt P30405) | -0.0274 | 0.0199
PNP_P00491_78_ACVMMQGR (UniProt P00491) | 0.104 | 0.188
POLR2B_P30876_984_MTIGHLIECLQGK (UniProt P30876) | -0.0996 | -0.0463
POLG2_Q9UHN1_73_SHAELEGNGEHPEAPGSGEGSEALLEICQR (UniProt Q9UHN1) | 0.242 | -0.158
POLR2B_P30876_221_YAYTGECR (UniProt P30876) | 0.0492 | 0.019
POGLUT1_Q8NBL1_357_NHLQMDDITCYWENLLSEYSK (UniProt Q8NBL1) | -0.0495 | -0.12

Whole records, quoted from the list.
PPA2_Q9H2U2_161_STNCFGDNDPIDVCEIGSK (UniProt Q9H2U2) is entered as probe-labelled cysteine peptide fold change (10 µM): 0.0296; probe-labelled cysteine peptide fold change (50 µM): 0.0346
POGLUT1_Q8NBL1_357_NHLQMDDITCYWENLLSEYSK (UniProt Q8NBL1) is entered as probe-labelled cysteine peptide fold change (10 µM): -0.0495; probe-labelled cysteine peptide fold change (50 µM): -0.12

Remaining list, next part.

Target | probe-labelled cysteine peptide fold change (10 µM) | probe-labelled cysteine peptide fold change (50 µM)
POGZ_Q7Z3K3_565_ICEWAFESEPLFLQHMK (UniProt Q7Z3K3) | 0.152 | 0.204
POGZ_Q7Z3K3_1230_GMLVMDCHR (UniProt Q7Z3K3) | -0.112 | -0.1
POLD1_P28340_873_DPEGAVAHAQDVISDLLCNR (UniProt P28340) | -0.202 | -0.137
POLD1_P28340_873_LLIDRDPEGAVAHAQDVISDLLCNR (UniProt P28340) | 0.0571 | -0.0386
POLR2M_P0CAP2_82_KSELFNPVSLDCK (UniProt P0CAP2) | -0.0241 | -0.292
PPAT_Q06203_503+506_SGHCTACLTGK (UniProt Q06203) | 0.214 | 0.0203
POLD1_P28340_837_RDNCPLVANLVTASLR (UniProt P28340) | -0.00474 | -0.0689
POLD1_P28340_761_VVYGDTDSVMCR (UniProt P28340) | 0.0333 | -0.0227
PNPT1_Q8TCS8_359_CDGRDLTSLR (UniProt Q8TCS8) | -0.305 | -0.0386
POLR3E_Q9NVU0_553_AAGTDSFNGHPPQGCASTPVAR (UniProt Q9NVU0) | -0.0176 | -0.422
POLR2B_P30876_892_DCSTFLR (UniProt P30876) | -0.0307 | -0.0887
POLR1A_O95602_822_IIEESTHCGPQAVR (UniProt O95602) | 0.102 | -0.141
PNPT1_Q8TCS8_372_NVSCEVDMFK (UniProt Q8TCS8) | -0.0456 | 0.0763
POP1_Q99575_242_CLLQDLSYYCCLELK (UniProt Q99575) | 0.0674 | -0.0124
PPCDC_Q96CD2_166_AFGYVEIPCVAK (UniProt Q96CD2) | -0.0451 | -0.0638
POGZ_Q7Z3K3_987_VVLFALCCNTEQAAEHFR (UniProt Q7Z3K3) | 0.303 | 0.251
POLA2_Q14181_198_VLGCPEALTGSYK (UniProt Q14181) | 0.0687 | 0.0426
PPIA_P62937_52_GFGYKGSCFHR (UniProt P62937) | -0.00283 | 0.0616
PPIF_P30405_203_IVITDCGQLS (UniProt P30405) | -0.0308 | 0.0592
PPFIBP1_Q86W92_926_QEDGEEYVCPMELGQASGSASK (UniProt Q86W92) | -0.183 | -0.344

Source: the supplement of paper PMC12067093, “Discovery and optimisation of a covalent ligand for TRIM25 and its application to targeted protein ubiquitination” (Chemical Science, 2025)
